Results from publication PMC9104323.
Results are given in words; binding and its absence hold for the method and conditions named. Binding seen in cells or lysates may run through a third protein. Here binding means that the protein was enriched with, or labelled near, the bait; the list need not be complete. No binding means not detected with the bait.

Protein sequences, listed by entry. Tags and fused reporters are not part of them.
UniProt P04150: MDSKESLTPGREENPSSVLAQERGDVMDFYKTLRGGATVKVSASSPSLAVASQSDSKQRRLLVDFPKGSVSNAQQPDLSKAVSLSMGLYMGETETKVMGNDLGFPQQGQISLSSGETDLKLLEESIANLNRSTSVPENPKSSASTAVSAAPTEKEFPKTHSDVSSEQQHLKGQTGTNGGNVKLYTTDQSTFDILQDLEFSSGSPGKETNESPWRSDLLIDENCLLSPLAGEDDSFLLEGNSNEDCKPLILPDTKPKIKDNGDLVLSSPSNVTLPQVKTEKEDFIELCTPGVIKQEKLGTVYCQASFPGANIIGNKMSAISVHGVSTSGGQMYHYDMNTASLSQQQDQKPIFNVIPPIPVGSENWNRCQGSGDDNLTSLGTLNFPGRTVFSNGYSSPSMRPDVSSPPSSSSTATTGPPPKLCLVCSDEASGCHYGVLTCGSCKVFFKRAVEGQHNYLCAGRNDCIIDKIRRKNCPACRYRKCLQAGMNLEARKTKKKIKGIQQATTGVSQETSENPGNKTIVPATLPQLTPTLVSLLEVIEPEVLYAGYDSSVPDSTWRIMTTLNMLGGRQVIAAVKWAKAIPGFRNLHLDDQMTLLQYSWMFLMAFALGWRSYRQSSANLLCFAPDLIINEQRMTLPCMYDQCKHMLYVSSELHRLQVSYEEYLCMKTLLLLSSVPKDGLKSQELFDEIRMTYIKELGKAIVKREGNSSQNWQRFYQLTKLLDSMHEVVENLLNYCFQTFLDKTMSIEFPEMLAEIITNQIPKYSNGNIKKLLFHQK

Target: glucocorticoid receptor (human (endogenous in HEK293)) (UniProt P04150)
Assay: affinity purification with mass spectrometry; IP of endogenous GR from HEK293 whole cell lysates with the anti-GR (G-5) antibody, overnight at 4 °C, protein A/G PLUS agarose, isotype control in parallel; LC-MS/MS, label-free quantification

- binding: no binding
B1: AMP deaminase 2 (protein, UniProt Q01433 1-825)
chain: MASYPSGSGKPKAKYPFKKRASLQASTAAPEARGGLGAPPLQSARSLPGPAPCLKHFPLDLRTSMDGKCKEIAEELFTRSLAESELRSAPYEFPEESPIEQLEERRQRLERQISQDVKLEPDILLRAKQDFLKTDSDSDLQLYKEQGEGQGDRSLRERDVLEREFQRVTISGEEKCGVPFTDLLDAAKSVVRALFIREKYMALSLQSFCPTTRRYLQQLAEKPLETRTYEQGPDTPVSADAPVHPPALEQHPYEHCEPSTMPGDLGLGLRMVRGVVHVYTRREPDEHCSEVELPYPDLQEFVADVNVLMALIINGPIKSFCYRRLQYLSSKFQMHVLLNEMKELAAQKKVPHRDFYNIRKVDTHIHASSCMNQKHLLRFIKRAMKRHLEEIVHVEQGREQTLREVFESMNLTAYDLSVDTLDVHADRNTFHRFDKFNAKYNPIGESVLREIFIKTDNRVSGKYFAHIIKEVMSDLEESKYQNAELRLSIYGRSRDEWDKLARWAVMHRVHSPNVRWLVQVPRLFDVYRTKGQLANFQEMLENIFLPLFEATVHPASHPELHLFLEHVDGFDSVDDESKPENHVFNLESPLPEAWVEEDNPPYAYYLYYTFANMAMLNHLRRQRGFHTFVLRPHCGEAGPIHHLVSAFMLAENISHGLLLRKAPVLQYLYYLAQIGIAMSPLSNNSLFLSYHRNPLPEYLSRGLMVSLSTDDPLQFHFTKEPLMEEYSIATQVWKLSSCDMCELARNSVLMSGFSHKVKSHWLGPNYTKEGPEGNDIRRTNVPDIRVGYRYETLCQELALITQAVQSEMLETIPEEAGITMSPGPQ
